Whole data set: some 33,000 sequences, median “E-score (-0.5 to 0.5)” near -0.0034, cut for the highest 2% near 0.25. Some of the results follow.
Target: T1, Yap3 (UniProt P38749)
T1 sequence: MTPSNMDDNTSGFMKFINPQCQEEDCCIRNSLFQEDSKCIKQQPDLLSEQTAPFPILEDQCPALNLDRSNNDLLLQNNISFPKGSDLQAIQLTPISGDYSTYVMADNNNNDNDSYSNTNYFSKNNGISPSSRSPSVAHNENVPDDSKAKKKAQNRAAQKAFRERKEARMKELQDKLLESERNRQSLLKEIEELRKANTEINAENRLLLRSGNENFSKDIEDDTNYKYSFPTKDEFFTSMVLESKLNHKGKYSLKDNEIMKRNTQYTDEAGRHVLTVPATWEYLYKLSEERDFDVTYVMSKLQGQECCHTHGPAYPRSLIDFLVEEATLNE
Test: PBM E-score (8-mer binding enrichment) (E-score (-0.5 to 0.5)); higher = stronger / more preferred TF binding
Settings: protein concentration: 100 nM; construct: GST-full length
How it was run: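 GST-tagged yeast TFs (full-length or DNA-binding domain) were made by PURExpress in vitro transcription/translation and applied at about 100-200 nM to universal all-10-mer Agilent arrays. The arrays were made double-stranded by primer extension, on fresh or once-stripped slides. Bound protein was detected with fluorescent anti-GST, and scans were normalised with masliner. Each ungapped eight-base word, pooled with its reverse complement, received an E-score (modified Wilcoxon-Mann-Whitney statistic) from the Universal PBM Analysis Suite.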

| Sequence | PBM E-score |
| --- | --- |
| TACGGAGA | 0.12 |
| CTGTACAA | 0.0137 |
| TGACGAAA | 0.104 |
| GATCGCGA | 0.0862 |
| AAAAAGCC | 0.17 |
| AGATTGTA | 0.154 |
| TATCTAAA | 0.0756 |
| GGTTTCGA | 0.0338 |
| ATGGGGAG | -0.131 |
| TCCTGCAA | -0.0566 |
| CGTACGCA | -0.0879 |
| GGGGCGAC | -0.0468 |
| TGGCATAA | 0.185 |
| CGACATAG | 0.00433 |
| AAAGGACG | -0.0362 |
| AAAAATTG | 0.0568 |
| TGACTGCA | -0.167 |
| CTGGAGAC | -0.109 |
| AATCAACT | 0.157 |
| CAAATAAC | 0.234 |
| CGCCATAC | 0.00827 |
| CCGAAGTA | -0.118 |
| AGTTTTAT | 0.199 |
| TAGAAGAA | -0.021 |
| AACCATTC | 0.0433 |

Four entries from above, field by field:
TACGGAGA
  PBM E-score = 0.12
CTGTACAA
  PBM E-score = 0.0137
TGACGAAA
  PBM E-score = 0.104
GATCGCGA
  PBM E-score = 0.0862

(continued)

| Sequence | PBM E-score |
| --- | --- |
| ACATCGCC | -0.00636 |
| CAATGCCA | 0.00637 |
| CGTTCTTA | 0.131 |
| AAAGCCAC | 0.0244 |
| AGGCCCGC | -0.118 |
| GTCAAAAC | 0.137 |
| GATAGTAA | 0.11 |
| TATGTACA | 0.155 |
| CACATCGC | -0.011 |
| AAAACGTC | 0.0521 |
| GTGAGCTA | 0.0321 |
| CCCACTAG | -0.223 |
| ATATAAAG | 0.236 |
| GGCGCATA | 0.0853 |
| TGCATCAA | 0.131 |
| ATCATCCA | 0.0816 |
| AACCGTCT | -0.209 |
| TGGCCTAA | -0.0203 |
| ACTGCCTC | -0.109 |
| CAAGACCG | -0.00767 |
| CTCTGAAG | -0.26 |
| CATGAGAC | -0.154 |
| CTATTAAG | -0.13 |
| AAGCATCC | -0.107 |
| CGGGCTCA | -0.315 |

Already shown: an excerpt of the list.

| Sequence | PBM E-score |
| --- | --- |
| CGTTCTTA | 0.131 |
| AAAGCCAC | 0.0244 |
| AGGCCCGC | -0.118 |

The results go on.

| Sequence | PBM E-score |
| --- | --- |
| AGCCGCCA | -0.336 |
| TCACGGAA | 0.0806 |
| GCCTAACA | -0.00335 |
| CAATGCAA | 0.11 |
| GTACCTTA | 0.14 |
| AACCACAC | 0.144 |
| TATCAATA | 0.203 |
| AGTAAAAT | 0.164 |
| ATTGGAAA | 0.0591 |
| CGGAGACC | -0.142 |
| CTGACAGA | 0.18 |
| GCACCACC | -0.24 |
| CCTACAAA | -0.115 |
| GGGCCTAC | -0.275 |
| CACTGGCG | -0.0144 |
| ATGTCCCG | -0.0663 |
| CAATACAC | 0.0844 |
| ACTGTGCT | 0.0355 |
| AGACCCGG | -0.107 |
| CGGTGAGA | 0.0997 |
| ACCCGAGA | -0.0794 |
| AGGCGATA | 0.0101 |
| GTGTTACA | 0.0421 |
| GACGACAA | 0.234 |
| AAACGCTA | -0.113 |

| Sequence | PBM E-score |
| --- | --- |
| CGTCAGAG | -0.0626 |
| GCCGTAGC | -0.0287 |
| AAGTAAAA | 0.0975 |
| TACCTATA | -0.123 |
| TCCGGACA | -0.0627 |
| AATCCAAG | 0.147 |
| ACCTCTAT | 0.0106 |
| GTTTAATA | 0.272 |
| AAGCCGAA | 0.0615 |
| ACTGACTA | 0.0871 |
| AAAACCTA | 0.177 |
| CCGTACCC | -0.174 |
| CGCCGCCA | -0.177 |
| GTGCTCCA | -0.0911 |
| ACAAAAGC | 0.175 |
| AGGGAGAT | -0.122 |
| AAGTGAAC | 0.128 |
| CAAATGTG | 0.195 |
| AACGCTGC | -0.131 |
| ATGATACC | 0.0925 |
| ACTCGGCA | 0.0944 |
| GCCACTAA | -0.0425 |
| GCTCGTAA | 0.108 |
| AAGTGTCA | -0.0281 |
| GCACACAA | 0.0813 |

| Sequence | PBM E-score |
| --- | --- |
| TAATTCAA | 0.168 |
| GACTCGAA | -0.124 |
| ACGTAAGA | 0.23 |
| CGCCTGGA | -0.0966 |
| GAGCTCTA | 0.116 |
| CTTGAGCC | -0.202 |
| AATCAACA | 0.304 |
| ATCGGGCC | -0.185 |
| GCGAGTCC | -0.104 |
| CTGTCGCC | -0.072 |
| GTCACACA | 0.00412 |
| ACTACTAT | 0.255 |
| ATAGGCAT | -0.0193 |
| CTGTCAAA | 0.0237 |
| CGTGGATC | 0.119 |
| GATGGCGC | -0.0517 |
| GCCTTCGA | -0.102 |
| CGAGACCG | -0.146 |
| GGCAATAC | 0.191 |
| TATCTCAA | 0.256 |
| AACCGATA | 0.107 |
| AACTCCTG | -0.0928 |
| GATTTGCA | 0.0902 |
| ACCATGGC | 0.0735 |
| AAAAGATA | 0.116 |

A few values from the list.
In PBM E-score, AGCCGCCA is entered as -0.336
In PBM E-score, GTGCTCCA is entered as -0.0911

Going on with the list:

| Sequence | PBM E-score |
| --- | --- |
| CCATCCCG | -0.129 |
| CTTATCCA | 0.196 |
| TCTAGACA | 0.00665 |
| CTGAAAGA | 0.0906 |
| CCGTGCGA | -0.0146 |
| ATCAACAC | 0.189 |
| CTTCATAC | 0.172 |
| ACATCTAG | -0.0228 |
| AGTGGAAA | 0.0997 |
| AAGCAGAC | -0.0626 |
| CACACATG | 0.0213 |
| GAGAGCGA | -0.166 |
| CCTTTGCC | -0.192 |
| AATTCGTA | 0.206 |
| GTGCTTTA | 0.121 |
| CGTTGCAG | -0.0459 |
| CCTAATAG | 0.0117 |
| ACATTAGA | 0.0407 |
| GGTGTGAA | 0.161 |
| ACACCGTG | -0.0715 |
| AATGGCGA | 0.0965 |
| CCGGTTGC | 0.0472 |
| GCGAAAAA | 0.197 |
| AGACGGCC | -0.302 |
| CAAATTGG | 0.221 |

| Sequence | PBM E-score |
| --- | --- |
| AAATGGGA | 0.0386 |
| AGGGGTTA | -0.154 |
| GCCTTCAC | -0.0188 |
| TCGATAAA | 0.0941 |
| CACTTTGG | -0.0459 |
| CATCTAAG | -0.0377 |
| AGACCTAC | -0.246 |
| CCAACCCG | -0.192 |
| GGCTTGAA | 0.0362 |
| CCACTGCA | -0.0133 |
| CAAGATGG | -0.0492 |
| CCTAGCTC | -0.211 |
| TAATCGAA | 0.246 |
| AGACCCTG | -0.124 |
| AACATGCA | 0.0696 |
| GGTTTTAA | 0.136 |
| CGCCCCCC | -0.435 |
| GGGGAGAA | -0.118 |
| CGCAGGTA | -0.116 |
| AGCCGGAC | 0.00041 |
| CGTTACTC | -0.0213 |
| CCGGTTAA | -0.148 |

— the supplement of paper PMC3334620
